# According to US20010027248A1, “Novel receptor” (SmithKline Beecham p.l.c., priority 1994, published 2001):
# For at least one compound, name, drawing or mass did not settle the structure.
# System: novel receptor
# Assay: Binding of known anticonvulsant compounds to the novel receptor
# From the text: Alternatively, the binding affinities of non-radio-labelled test compounds may be established by measuring the amount of displacement of a radio-labelled compound which is known to bind to the receptor such as compound (A) and (B) and other compounds mentioned or covered by the aforementioned patents or applications, using conventional techniques.
smiles,measurement,value
CCCC(CCC)C(=O)O [valproate],binding to the novel receptor,do not bind
